Results taken from paper PMC5100023.
No constants are given. Whether binding was seen depends on the method and setting. For part of these data: In cells and extracts the contact can be indirect. Some entries that bind do so weakly or less than the wild type. Where a sequence is shown, tags or fusion partners need not be part of it. Blank lines part the entries; values can stand above or below the binder they belong to.

Legend:
[1] = target: T1, MEDEA (MEA), endogenous (Arabidopsis thaliana (endogenous in Arabidopsis inflorescences)) (UniProt O65312); assay: SEC; native cytoplasmic extract of inflorescences (flowers after anthesis) of ProFIE:FIE(gDNA)-GFP plants on Superose 6 HR 10/30 at 4 °C; 0.5 ml fractions immunoblotted with αMEA and αGFP
T1 sequence: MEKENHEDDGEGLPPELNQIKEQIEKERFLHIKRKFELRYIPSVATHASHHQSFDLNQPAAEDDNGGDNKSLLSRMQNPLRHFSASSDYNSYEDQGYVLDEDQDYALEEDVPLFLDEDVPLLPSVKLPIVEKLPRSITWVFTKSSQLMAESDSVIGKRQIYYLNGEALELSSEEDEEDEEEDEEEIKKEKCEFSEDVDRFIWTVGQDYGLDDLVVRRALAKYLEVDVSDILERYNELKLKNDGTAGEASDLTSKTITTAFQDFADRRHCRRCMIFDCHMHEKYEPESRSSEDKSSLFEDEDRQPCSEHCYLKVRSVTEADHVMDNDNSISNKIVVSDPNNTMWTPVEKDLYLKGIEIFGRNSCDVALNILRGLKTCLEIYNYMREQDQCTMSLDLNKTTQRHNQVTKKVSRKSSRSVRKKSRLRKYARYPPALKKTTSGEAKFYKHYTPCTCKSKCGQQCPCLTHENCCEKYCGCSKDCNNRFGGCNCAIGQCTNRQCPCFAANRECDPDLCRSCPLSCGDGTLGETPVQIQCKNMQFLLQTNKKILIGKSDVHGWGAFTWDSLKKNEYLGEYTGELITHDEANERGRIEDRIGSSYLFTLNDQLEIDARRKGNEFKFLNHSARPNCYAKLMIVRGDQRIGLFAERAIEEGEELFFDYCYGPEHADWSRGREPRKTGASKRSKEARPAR

[2] = target: T1, MEDEA (MEA), endogenous (Arabidopsis thaliana (endogenous in Arabidopsis inflorescences)); assay: SEC; native nuclear (chromatin-associated) extract of inflorescences of gFIE-GFP plants on Superose 6 HR 10/30 at 4 °C; fractions immunoblotted (Supplementary Fig. S6B)
[3] = target: T2, MEA-3×HA (Arabidopsis thaliana) (UniProt O65312); assay: co-IP; cytoplasmic extract of inflorescences of MEA-3HA transgenic Arabidopsis; immunoprecipitated with αHA, protein G Sepharose, four washes with PBS, immunoblot with αFIE
T2 sequence: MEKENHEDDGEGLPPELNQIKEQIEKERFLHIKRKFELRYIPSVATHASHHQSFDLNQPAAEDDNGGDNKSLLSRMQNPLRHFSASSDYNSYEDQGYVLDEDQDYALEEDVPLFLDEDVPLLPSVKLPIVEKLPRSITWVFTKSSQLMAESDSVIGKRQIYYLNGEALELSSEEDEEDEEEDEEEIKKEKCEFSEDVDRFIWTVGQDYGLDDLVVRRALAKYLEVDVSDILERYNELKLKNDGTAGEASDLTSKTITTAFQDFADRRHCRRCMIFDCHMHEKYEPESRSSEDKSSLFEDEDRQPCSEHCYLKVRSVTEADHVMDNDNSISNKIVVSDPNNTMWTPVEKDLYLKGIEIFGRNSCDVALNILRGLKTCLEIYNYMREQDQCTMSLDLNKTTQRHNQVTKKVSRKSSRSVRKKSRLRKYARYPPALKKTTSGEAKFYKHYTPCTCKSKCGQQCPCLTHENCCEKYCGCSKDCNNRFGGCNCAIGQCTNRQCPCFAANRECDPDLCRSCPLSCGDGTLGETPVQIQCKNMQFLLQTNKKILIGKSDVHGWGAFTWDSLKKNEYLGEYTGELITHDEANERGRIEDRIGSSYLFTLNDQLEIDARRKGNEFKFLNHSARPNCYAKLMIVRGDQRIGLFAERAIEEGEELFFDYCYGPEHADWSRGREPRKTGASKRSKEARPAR

[4] = target: T3, YN-GG-MEA (in Nicotiana benthamiana leaves) (Arabidopsis thaliana) (UniProt O65312); assay: co-IP; cytoplasmic extract of N. benthamiana leaves transiently coexpressing YN-MEA and YC-FIE; monoclonal αHA or αGlu-Glu, protein G Sepharose, four washes with PBS, immunoblot
T3 sequence: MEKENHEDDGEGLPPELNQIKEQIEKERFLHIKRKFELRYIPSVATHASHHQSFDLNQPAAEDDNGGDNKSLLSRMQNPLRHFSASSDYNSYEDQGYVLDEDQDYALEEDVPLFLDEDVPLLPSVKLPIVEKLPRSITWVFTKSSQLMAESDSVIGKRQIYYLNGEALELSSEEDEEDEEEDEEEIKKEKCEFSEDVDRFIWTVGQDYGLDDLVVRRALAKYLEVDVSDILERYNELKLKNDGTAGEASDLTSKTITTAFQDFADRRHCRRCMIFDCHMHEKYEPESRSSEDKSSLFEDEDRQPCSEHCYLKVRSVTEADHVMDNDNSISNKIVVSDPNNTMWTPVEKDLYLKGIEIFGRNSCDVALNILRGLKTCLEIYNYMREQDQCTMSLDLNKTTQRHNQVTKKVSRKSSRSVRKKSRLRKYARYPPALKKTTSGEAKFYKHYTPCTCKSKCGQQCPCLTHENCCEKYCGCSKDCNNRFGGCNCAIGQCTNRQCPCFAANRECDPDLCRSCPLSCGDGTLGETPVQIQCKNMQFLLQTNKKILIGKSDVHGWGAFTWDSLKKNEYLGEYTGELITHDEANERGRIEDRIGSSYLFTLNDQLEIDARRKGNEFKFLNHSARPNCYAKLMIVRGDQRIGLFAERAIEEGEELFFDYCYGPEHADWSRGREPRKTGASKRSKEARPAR

[5] = target: T4, YN-GG-MEA (in Arabidopsis cotyledons) (Arabidopsis thaliana) (UniProt O65312); assay: split reporter; BiFC with YN and YC fragments of YFP, transiently coexpressed in Arabidopsis cotyledons by Agrobacterium vacuum infiltration; confocal microscopy 48–72 h after infiltration
T4 sequence: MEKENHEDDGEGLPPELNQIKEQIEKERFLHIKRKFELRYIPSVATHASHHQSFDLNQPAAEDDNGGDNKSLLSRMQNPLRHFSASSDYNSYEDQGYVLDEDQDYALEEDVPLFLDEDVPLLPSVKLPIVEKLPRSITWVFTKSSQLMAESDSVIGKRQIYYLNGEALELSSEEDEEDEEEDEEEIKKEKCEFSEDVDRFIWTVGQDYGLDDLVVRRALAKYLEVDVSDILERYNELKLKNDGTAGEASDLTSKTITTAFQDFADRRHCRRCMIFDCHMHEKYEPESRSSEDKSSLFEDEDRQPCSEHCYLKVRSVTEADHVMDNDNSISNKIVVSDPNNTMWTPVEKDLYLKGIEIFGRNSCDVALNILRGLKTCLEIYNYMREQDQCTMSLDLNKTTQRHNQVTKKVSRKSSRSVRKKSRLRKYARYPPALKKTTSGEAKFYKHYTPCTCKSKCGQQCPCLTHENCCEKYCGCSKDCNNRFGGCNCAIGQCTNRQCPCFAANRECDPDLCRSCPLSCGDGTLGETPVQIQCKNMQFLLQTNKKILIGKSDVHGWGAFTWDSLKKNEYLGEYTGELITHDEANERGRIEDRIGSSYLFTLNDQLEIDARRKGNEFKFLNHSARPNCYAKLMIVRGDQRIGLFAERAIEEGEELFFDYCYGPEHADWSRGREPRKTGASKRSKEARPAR

- binding [1]: binds
- binding [2]: binds
B1: gFIE-GFP (FIE-green fluorescent protein fusion expressed from the ProFIE:FIE(gDNA)-GFP transgene) (protein, UniProt Q9LT47 1-369)
chain: MSKITLGNESIVGSLTPSNKKSYKVTNRIQEGKKPLYAVVFNFLDARFFDVFVTAGGNRITLYNCLGDGAISALQSYADEDKEESFYTVSWACGVNGNPYVAAGGVKGIIRVIDVNSETIHKSLVGHGDSVNEIRTQPLKPQLVITASKDESVRLWNVETGICILIFAGAGGHRYEVLSVDFHPSDIYRFASCGMDTTIKIWSMKEFWTYVEKSFTWTDDPSKFPTKFVQFPVFTASIHTNYVDCNRWFGDFILSKSVDNEILLWEPQLKENSPGEGASDVLLRYPVPMCDIWFIKFSCDLHLSSVAIGNQEGKVYVWDLKSCPPVLITKLSHNQSKSVIRQTAMSVDGSTILACCEDGTIWRWDVITK

- binding [2]: binds
- binding [3]: binds
B2: FERTILIZATION … ENDOSPERM (FIE), endogenous (protein, UniProt Q9LT47 1-369)
chain: MSKITLGNESIVGSLTPSNKKSYKVTNRIQEGKKPLYAVVFNFLDARFFDVFVTAGGNRITLYNCLGDGAISALQSYADEDKEESFYTVSWACGVNGNPYVAAGGVKGIIRVIDVNSETIHKSLVGHGDSVNEIRTQPLKPQLVITASKDESVRLWNVETGICILIFAGAGGHRYEVLSVDFHPSDIYRFASCGMDTTIKIWSMKEFWTYVEKSFTWTDDPSKFPTKFVQFPVFTASIHTNYVDCNRWFGDFILSKSVDNEILLWEPQLKENSPGEGASDVLLRYPVPMCDIWFIKFSCDLHLSSVAIGNQEGKVYVWDLKSCPPVLITKLSHNQSKSVIRQTAMSVDGSTILACCEDGTIWRWDVITK

- binding [4]: binds
B3: YC-HA-FIE (in Nicotiana benthamiana leaves) (protein, UniProt Q9LT47 1-369)
chain: MSKITLGNESIVGSLTPSNKKSYKVTNRIQEGKKPLYAVVFNFLDARFFDVFVTAGGNRITLYNCLGDGAISALQSYADEDKEESFYTVSWACGVNGNPYVAAGGVKGIIRVIDVNSETIHKSLVGHGDSVNEIRTQPLKPQLVITASKDESVRLWNVETGICILIFAGAGGHRYEVLSVDFHPSDIYRFASCGMDTTIKIWSMKEFWTYVEKSFTWTDDPSKFPTKFVQFPVFTASIHTNYVDCNRWFGDFILSKSVDNEILLWEPQLKENSPGEGASDVLLRYPVPMCDIWFIKFSCDLHLSSVAIGNQEGKVYVWDLKSCPPVLITKLSHNQSKSVIRQTAMSVDGSTILACCEDGTIWRWDVITK

- binding [5]: binds
B4: YC-HA-FIE (in Arabidopsis cotyledons) (protein, UniProt Q9LT47 1-369)
chain: MSKITLGNESIVGSLTPSNKKSYKVTNRIQEGKKPLYAVVFNFLDARFFDVFVTAGGNRITLYNCLGDGAISALQSYADEDKEESFYTVSWACGVNGNPYVAAGGVKGIIRVIDVNSETIHKSLVGHGDSVNEIRTQPLKPQLVITASKDESVRLWNVETGICILIFAGAGGHRYEVLSVDFHPSDIYRFASCGMDTTIKIWSMKEFWTYVEKSFTWTDDPSKFPTKFVQFPVFTASIHTNYVDCNRWFGDFILSKSVDNEILLWEPQLKENSPGEGASDVLLRYPVPMCDIWFIKFSCDLHLSSVAIGNQEGKVYVWDLKSCPPVLITKLSHNQSKSVIRQTAMSVDGSTILACCEDGTIWRWDVITK
